Measurements published in the supplement of paper PMC7661543.
± gives the standard deviation of the averaged measurements. Differences between knockout arms are mostly noise.

System: ZR-75-1
Experiment: relative cell number vs DMSO control (72 h) (% of DMSO); higher = less growth inhibition (more cells)
Experimental: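 QMAP-Seq: a pool of 5 breast cancer cell lines (ZR-75-1, SKBR3, HCC-38, MDA-MB-231, BT-20), each carrying 12 doxycycline-inducible Cas9 sgRNA perturbations (11 knockouts plus non-targeting sgNT), was treated with compounds for 72 h at four 10-fold doses (10 nM-10 uM or 1 nM-1 uM range). Barcodes were amplified and sequenced, and cell number was interpolated from 293T spike-in standard curves. The result is expressed as % of the median of DMSO wells. Two biological replicates.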

[1] = sgRNA knockout: sgATF3, 1000 nM
[2] = sgRNA knockout: sgATF4, 1000 nM
[3] = sgRNA knockout: sgATF6, 1000 nM
[4] = sgRNA knockout: sgATG7, 1000 nM
[5] = sgRNA knockout: sgERN1, 1000 nM
[6] = sgRNA knockout: sgHSF2, 1000 nM
[7] = sgRNA knockout: sgNFE2L2, 10 nM
[8] = sgRNA knockout: sgNFE2L2, 100 nM
[9] = sgRNA knockout: sgNFE2L2, 1000 nM
[10] = sgRNA knockout: sgSLC35F2, 10 nM
[11] = sgRNA knockout: sgSLC35F2, 100 nM
[12] = sgRNA knockout: sgSLC35F2, 1000 nM
[13] = sgRNA knockout: sgXBP1, 1000 nM
[14] = sgRNA knockout: sgATF3, 10000 nM
[15] = sgRNA knockout: sgATF4, 10000 nM
[16] = sgRNA knockout: sgATF6, 10000 nM
[17] = sgRNA knockout: sgATG7, 10000 nM
[18] = sgRNA knockout: sgERN1, 10000 nM
[19] = sgRNA knockout: sgHSF2, 10000 nM
[20] = sgRNA knockout: sgNFE2L2, 10000 nM
[21] = sgRNA knockout: sgSLC35F2, 10000 nM
[22] = sgRNA knockout: sgXBP1, 10000 nM

With CC(C)C[C@H](NC(=O)[C@H](CCc1ccccc1)NC(=O)CN1CCOCC1)C(=O)N[C@@H](Cc1ccccc1)C(=O)N[C@@H](CC(C)C)C(=O)[C@@]1(C)CO1 [Carfilzomib] the relative cell number (sgRNA knockout: sgATF3, 1 nM) was 102 ± 28, the relative cell number (sgRNA knockout: sgATF3, 10 nM) was 103 ± 19 and the relative cell number (sgRNA knockout: sgATF3, 100 nM) was 27.4 ± 14. The relative cell number [1] was 5.76 ± 1.3, the relative cell number (sgRNA knockout: sgATF4, 1 nM) was 76.8 ± 17 and the relative cell number (sgRNA knockout: sgATF4, 10 nM) was 54.7 ± 16. It also gave a relative cell number (sgRNA knockout: sgATF4, 100 nM) of 30 ± 13, a relative cell number [2] of 5.17 ± 1 and a relative cell number (sgRNA knockout: sgATF6, 1 nM) of 50.7 ± 8.1. It also gave a relative cell number (sgRNA knockout: sgATF6, 10 nM) of 88.9 ± 14, a relative cell number (sgRNA knockout: sgATF6, 100 nM) of 27.8 ± 6.4 and a relative cell number [3] of 4.17 ± 1.4. For the same molecule, the relative cell number (sgRNA knockout: sgATG7, 1 nM) was 105 ± 51, the relative cell number (sgRNA knockout: sgATG7, 10 nM) was 97.4 ± 32 and the relative cell number (sgRNA knockout: sgATG7, 100 nM) was 29.3 ± 17. For the same molecule, the relative cell number [4] was 8.76 ± 0.14, the relative cell number (sgRNA knockout: sgERN1, 1 nM) was 85.5 ± 29 and the relative cell number (sgRNA knockout: sgERN1, 10 nM) was 76.7 ± 8.4. For the same molecule, the relative cell number (sgRNA knockout: sgERN1, 100 nM) was 34.1 ± 13, the relative cell number [5] was 6.05 ± 1.8 and the relative cell number (sgRNA knockout: sgHSF2, 1 nM) was 94.3 ± 31. For the same molecule, the relative cell number (sgRNA knockout: sgHSF2, 10 nM) was 89.8 ± 7.4, the relative cell number (sgRNA knockout: sgHSF2, 100 nM) was 27.6 ± 12 and the relative cell number [6] was 4.47 ± 1.3. For the same molecule, the relative cell number (sgRNA knockout: sgNFE2L2, 1 nM) was 69.3 ± 5.4, the relative cell number [7] was 96.9 ± 8.8 and the relative cell number [8] was 30 ± 11. The relative cell number [9] was 7 ± 1.1, the relative cell number (sgRNA knockout: sgSLC35F2, 1 nM) was 57.2 ± 27 and the relative cell number [10] was 63.6 ± 21. It also gave a relative cell number [11] of 40.2 ± 14, a relative cell number [12] of 2.5 ± 1.4 and a relative cell number (sgRNA knockout: sgXBP1, 1 nM) of 75.2 ± 16. It also gave a relative cell number (sgRNA knockout: sgXBP1, 10 nM) of 73.05 ± 0.25, a relative cell number (sgRNA knockout: sgXBP1, 100 nM) of 26.7 ± 5.8 and a relative cell number [13] of 4.83 ± 1.
In the case of N.N.[Cl][Pt][Cl] [Cisplatin], the relative cell number (sgRNA knockout: sgATF3, 10 nM) is reported as 108 ± 32, the relative cell number (sgRNA knockout: sgATF3, 100 nM) is reported as 93.5 ± 3.7 and the relative cell number [1] is reported as 117 ± 2.7. For the same molecule, the relative cell number [14] was 98.8 ± 3.1, the relative cell number (sgRNA knockout: sgATF4, 10 nM) was 94.5 ± 7.8 and the relative cell number (sgRNA knockout: sgATF4, 100 nM) was 79.7 ± 7.2. The relative cell number [2] was 137 ± 52, the relative cell number [15] was 73.8 ± 20 and the relative cell number (sgRNA knockout: sgATF6, 10 nM) was 95 ± 34. The relative cell number (sgRNA knockout: sgATF6, 100 nM) was 80.9 ± 15, the relative cell number [3] was 90.1 ± 9.7 and the relative cell number [16] was 151 ± 65. The relative cell number (sgRNA knockout: sgATG7, 10 nM) was 107 ± 3.6, the relative cell number (sgRNA knockout: sgATG7, 100 nM) was 87.8 ± 21 and the relative cell number [4] was 86.9 ± 29. The relative cell number [17] was 94.8 ± 13, the relative cell number (sgRNA knockout: sgERN1, 10 nM) was 93.9 ± 18 and the relative cell number (sgRNA knockout: sgERN1, 100 nM) was 85.6 ± 1.8. For the same molecule, the relative cell number [5] was 113 ± 68, the relative cell number [18] was 98 ± 10 and the relative cell number (sgRNA knockout: sgHSF2, 10 nM) was 90.8 ± 2.9. The relative cell number (sgRNA knockout: sgHSF2, 100 nM) was 95.4 ± 5, the relative cell number [6] was 123 ± 26 and the relative cell number [19] was 93.6 ± 22. For the same molecule, the relative cell number [7] was 144 ± 19, the relative cell number [8] was 82.9 ± 17 and the relative cell number [9] was 122 ± 8.9. For the same molecule, the relative cell number [20] was 102 ± 18, the relative cell number [10] was 116 ± 44 and the relative cell number [11] was 92 ± 68. It also gave a relative cell number [12] of 117 ± 34, a relative cell number [21] of 83.5 ± 13 and a relative cell number (sgRNA knockout: sgXBP1, 10 nM) of 114 ± 8.5. For the same molecule, the relative cell number (sgRNA knockout: sgXBP1, 100 nM) was 82.3 ± 9, the relative cell number [13] was 128 ± 4.8 and the relative cell number [22] was 94.5 ± 1.4.
With C[C@@H](Oc1cc(-c2cnn(C3CCNCC3)c2)cnc1N)c1c(Cl)ccc(F)c1Cl [Crizotinib] the relative cell number (sgRNA knockout: sgATF3, 10 nM) was 87.7 ± 56, the relative cell number (sgRNA knockout: sgATF3, 100 nM) was 115 ± 5.4 and the relative cell number [1] was 36.3 ± 5.6. The relative cell number [14] was 16 ± 2.8, the relative cell number (sgRNA knockout: sgATF4, 10 nM) was 86.5 ± 13 and the relative cell number (sgRNA knockout: sgATF4, 100 nM) was 115 ± 2.3. For the same molecule, the relative cell number [2] was 49 ± 14, the relative cell number [15] was 13.78 ± 0.1 and the relative cell number (sgRNA knockout: sgATF6, 10 nM) was 71.6 ± 3.3. It also gave a relative cell number (sgRNA knockout: sgATF6, 100 nM) of 107 ± 31, a relative cell number [3] of 45.4 ± 0.87 and a relative cell number [16] of 24.2 ± 15. For the same molecule, the relative cell number (sgRNA knockout: sgATG7, 10 nM) was 105 ± 32, the relative cell number (sgRNA knockout: sgATG7, 100 nM) was 100.9 ± 0.64 and the relative cell number [4] was 46.7 ± 8.1. It also gave a relative cell number [17] of 24.1 ± 11, a relative cell number (sgRNA knockout: sgERN1, 10 nM) of 90.7 ± 15 and a relative cell number (sgRNA knockout: sgERN1, 100 nM) of 86.7 ± 4.3. It also gave a relative cell number [5] of 46 ± 9.4, a relative cell number [18] of 30 ± 16 and a relative cell number (sgRNA knockout: sgHSF2, 10 nM) of 84 ± 15. For the same molecule, the relative cell number (sgRNA knockout: sgHSF2, 100 nM) was 78.3 ± 9.5, the relative cell number [6] was 35.4 ± 8 and the relative cell number [19] was 25.7 ± 5.7. The relative cell number [7] was 135 ± 43, the relative cell number [8] was 102 ± 7.4 and the relative cell number [9] was 43.8 ± 1.9. The relative cell number [20] was 22.7 ± 10, the relative cell number [10] was 45.6 ± 14 and the relative cell number [11] was 118 ± 13. The relative cell number [12] was 33 ± 17, the relative cell number [21] was 21.4 ± 0.4 and the relative cell number (sgRNA knockout: sgXBP1, 10 nM) was 108 ± 23. The relative cell number (sgRNA knockout: sgXBP1, 100 nM) was 88.9 ± 17, the relative cell number [13] was 46.6 ± 2.4 and the relative cell number [22] was 20.9 ± 8.5.
CN(C)/N=N/c1[nH]cnc1C(N)=O [Dacarbazine] gave a relative cell number (sgRNA knockout: sgATF3, 10 nM) of 81 ± 20, a relative cell number (sgRNA knockout: sgATF3, 100 nM) of 104 ± 9.2 and a relative cell number [1] of 109 ± 7. For the same molecule, the relative cell number [14] was 108 ± 32, the relative cell number (sgRNA knockout: sgATF4, 10 nM) was 130 ± 46 and the relative cell number (sgRNA knockout: sgATF4, 100 nM) was 99.4 ± 12. The relative cell number [2] was 102 ± 32, the relative cell number [15] was 114 ± 1.4 and the relative cell number (sgRNA knockout: sgATF6, 10 nM) was 102 ± 27. The relative cell number (sgRNA knockout: sgATF6, 100 nM) was 94.5 ± 2.9, the relative cell number [3] was 103 ± 23 and the relative cell number [16] was 95 ± 36. For the same molecule, the relative cell number (sgRNA knockout: sgATG7, 10 nM) was 68.1 ± 10, the relative cell number (sgRNA knockout: sgATG7, 100 nM) was 89.3 ± 14 and the relative cell number [4] was 102 ± 39. It also gave a relative cell number [17] of 96.9 ± 19, a relative cell number (sgRNA knockout: sgERN1, 10 nM) of 95.5 ± 36 and a relative cell number (sgRNA knockout: sgERN1, 100 nM) of 123 ± 18. The relative cell number [5] was 88.6 ± 11, the relative cell number [18] was 85.6 ± 12 and the relative cell number (sgRNA knockout: sgHSF2, 10 nM) was 89.5 ± 15. The relative cell number (sgRNA knockout: sgHSF2, 100 nM) was 93.8 ± 2.7, the relative cell number [6] was 120 ± 23 and the relative cell number [19] was 113 ± 47. It also gave a relative cell number [7] of 150 ± 1.6, a relative cell number [8] of 114 ± 24 and a relative cell number [9] of 91.5 ± 15. It also gave a relative cell number [20] of 126 ± 2.7, a relative cell number [10] of 70.8 ± 40 and a relative cell number [11] of 73.7 ± 5.3. For the same molecule, the relative cell number [12] was 74.2 ± 22, the relative cell number [21] was 68.7 ± 56 and the relative cell number (sgRNA knockout: sgXBP1, 10 nM) was 123 ± 1.7. It also gave a relative cell number (sgRNA knockout: sgXBP1, 100 nM) of 107 ± 14, a relative cell number [13] of 84.9 ± 11 and a relative cell number [22] of 100 ± 21.
